In article PMC6387369, “Carbonic Anhydrase Inhibitors of Different Structures Dilate Pre-Contracted Porcine Retinal Arteries” (International Journal of Molecular Sciences, 2019):

System: porcine retinal arteries
Experiment: small vessel myography of wall tension in isolated retinal artery segments pre-contracted with U-46619
Assay type: cell-based
Settings: Sus scrofa; best fit to concentration-response curves; arteries pre-contracted with 10^−6 M U-46619; read-out: mean EC50 of vasodilation
Method: Changes in the wall tension of short segments (<2 mm) of porcine retinal arterioles were examined with a small vessel myography system. Pig eyes were obtained from a local abattoir. The pigs were anesthetized with CO2 and put down by exsanguination. All procedures involving animals adhered to the appropriate local and international laws and relevant ethical rules. Only one eye was obtained from each animal for the experiments. Eyes were placed in a 4 °C oxygenated physiological saline solution (PSS) and transported to the laboratory as quickly as possible (within 30 min). […]
The eyes were bisected with a razor blade at the equator and the anterior segment removed. […] The exact length of the vessel segment, once placed in the myography system, was measured by taking a photograph of it through the stereoscope, and then converting the vessel length in pixels into millimeters. The heating unit of the DMT630MA system was then turned on and set to a stable temperature of 37 °C, monitored by a thermal probe inserted into the bathing medium.
The wall tension of the vessel segment was continuously recorded with LabChart Pro (ADInstruments, Oxford, UK). Once the temperature in the bathing medium had reached 37 °C, the preparation was left to stabilize for 30 min and the normalization of wall tension was carried out, taking into account the measured length of the vessel. […]

`CCN[C@H]1C[C@H](C)S(=O)(=O)c2sc(S(N)(=O)=O)cc21` [Compound 2, Dorzolamide, reference compound] gave an EC50 of 860 µM.
